# Source: PubChem BioAssay AID445 (National Center for Advancing Translational Sciences (NCATS), 2006)
# Some of the results follow. Shown are side measurements of this screen, not its main read-out; they come without a call. Compounds called inactive in the main read-out are mostly missing here. Potencies come from curve fits of mixed quality, noted in brackets.
# Assay: IkB Signaling
# Conditions: ABC-DLBCL IkBa-CBG/CBR dual luciferase ratio (green luciferase fused to IkBa over red control in OCI-Ly3 lymphoma cells), 4 h
# Outline: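 Luminescence ratio of IκBα-fused green versus native red beetle luciferase in OCI-Ly3 cells, 4 h post-doxycycline with compound; red signal alone, scaled from basal (0%) to zero light (-100%), flagged nonspecific or cytotoxic effects.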
# [1] = measured here: control luc red channel unless noted
# [2] = measured here: IkB-luc green channel
# [3] = measured here: control luc red channel
smiles,measurement,setting,value
Cc1cc(N2CCOCC2)nc(SCC(=O)c2ccccc2)n1,AC50,[1],"12.6 µM [falling, partial curve]"
CCCCNC(=O)C1CCCN(c2nnc(C)c3c(C)n(-c4ccc(Cl)cc4)nc23)C1 (stereo not drawn),AC50,[1],"25.1 µM [falling, single point]"
CN1CCc2c(sc3c2C(=O)NC(c2ccc(-c4cccc(Cl)c4)o2)N3)C1 (stereo not drawn),AC50,[1],"12.6 µM [falling, partial curve]"
N#CC(=C(/N)Sc1ccccc1N)/C(C#N)=C(/N)Sc1ccccc1N,AC50,[1],"0.398 µM [falling, full curve]"
CC(C)c1ccc(S(=O)(=O)Nc2ccc(O)c(Sc3nc4ccccc4s3)c2)cc1,AC50,[1],"20 µM [falling, single point]"
CSc1cccc(NC(=O)C2CCN(S(=O)(=O)c3ccc4[nH]c(=O)ccc4c3)CC2)c1,AC50,[1],"5.01 µM [falling, full curve]"
CCOC(=O)C1(C)C=C(Nc2ccc(C)cc2)C(=O)N1c1ccccc1 (stereo not drawn),AC50,[1],"0.2 µM [falling, full curve, poor fit]"
CCCCC(CC)CNC(=O)c1ccc2c(c1)OCO2 (stereo not drawn),AC50,[1],"15.8 µM [falling, partial curve]"
O=C(c1ccncc1)N1CCC[C@@]2(CCN(c3cccc(-c4ccccc4)c3)C2)C1,AC50,[1],"3.16 µM [falling, partial curve]"
COc1ccc(NC(=O)CN(c2cccc(C)c2C)S(=O)(=O)c2ccccc2)cc1OC,AC50,[1],"25.1 µM [falling, single point]"
CC(=O)c1cccc(NC(=O)c2noc3c2CC(C)CC3)c1 (stereo not drawn),AC50,[1],"1.58 µM [rising, full curve, poor fit]"
Cc1cc2c(cc1C)C(c1cccc(OC(C)C)c1)CC(=O)N2 (stereo not drawn),AC50,[1],"39.8 µM [falling, single point]"
CCc1ccc(S(=O)(=O)NCCc2csc(-c3ccccc3)n2)s1,AC50,[1],"7.94 µM [falling, partial curve]"
COc1ccc(OC)c(Nc2c3c(nc4ccccc24)CCC3)c1,AC50,[1],"7.94 µM [rising, partial curve]"
CCCN(Cc1cccs1)C(=O)Nc1ccc(F)c(Cl)c1,AC50,[1],"10 µM [falling, partial curve]"
CCc1ccc(NC(=O)c2ccc(F)c(S(=O)(=O)NCCc3ccc(OC)c(OC)c3)c2)cc1,AC50,[1],"39.8 µM [falling, partial curve]"
COc1cccc(Nc2sc(C(=O)c3ccc(Cl)cc3)c(N)c2C(=O)NCCc2ccc(OC)c(OC)c2)c1,AC50,[1],"12.6 µM [falling, partial curve]"
Cc1ccc(C)c(NC(=O)Cn2c(=O)n(Cc3ccc4c(c3)OCO4)c(=O)c3ccccc32)c1,AC50,[1],"10 µM [rising, partial curve]"
CCCSc1nnc2n(-c3cccc(C)c3)c(=O)c3c4c(sc3n12)CCCC4,AC50,[2],"31.6 µM [falling, single point]"
same,AC50,[3],"39.8 µM [falling, partial curve]"
COc1cc(OC)c(CN2CCN(c3ccc(F)cc3)CC2)cc1Br,AC50,[1],"12.6 µM [falling, partial curve]"
Cn1c(Oc2ccccc2)nc2c1c(=O)n(Cc1ccc(Cl)cc1Cl)c(=O)n2C,AC50,[1],"10 µM [falling, partial curve]"
CC(C)CCNc1ncnc2c1cnn2-c1cccc(Cl)c1,AC50,[1],"39.8 µM [falling, single point]"
Cc1ccccc1C(c1c(C)n(C)n(-c2ccccc2)c1=O)c1c(C)n(C)n(-c2ccccc2)c1=O,AC50,[1],"39.8 µM [falling, single point]"
CCOc1ccc2c(c1)c(=O)c(C(=O)c1ccc(C)cc1)cn2Cc1ccccc1OC,AC50,[1],"20 µM [falling, partial curve]"
CCOc1ccccc1NC(=O)CN1C(=O)C2(SCC(=O)N2c2ccc(C)cc2)c2ccccc21 (stereo not drawn),AC50,[1],"10 µM [falling, partial curve]"
CCc1nnc(NC(=O)CCC(=O)N2CCN(CCc3ccccc3)CC2)s1,AC50,[1],"3.16 µM [falling, full curve]"
CC(C)c1ccc(NC(=O)Cn2c(=O)n(Cc3nc(-c4ccccc4)no3)c(=O)c3cc4c(cc32)OCO4)cc1,AC50,[1],"7.94 µM [falling, partial curve]"
CCS(=O)(=O)c1ncc(Cl)c(C(=O)N(Cc2ccccc2)c2ccc(OC)cc2)n1,AC50,[1],"2.51 µM [falling, partial curve]"
O=C(CN1CCN(S(=O)(=O)c2ccc(F)cc2)CC1)Nc1ccc(Cl)c(C(F)(F)F)c1,AC50,[1],"15.8 µM [falling, partial curve]"
CCCOC(=O)c1ccc(NC(=O)CCC(=O)OCC)cc1,AC50,[1],"1.26 µM [falling, full curve]"
CC(C)OCCCN1C(=O)c2[nH]nc(-c3ccccc3O)c2C1c1cccc(OCc2ccccc2)c1 (stereo not drawn),AC50,[1],"12.6 µM [falling, partial curve]"
O=C1CC(c2ccco2)c2ccc3ccccc3c2N1 (stereo not drawn),AC50,[1],"2 µM [rising, partial curve] [measured here: IkB-luc green channel]"
N=C(N)SCCON1C(=O)c2ccccc2C1=O,AC50,[1],"3.16 µM [falling, partial curve]"
O=C(Nc1nnc(S(=O)(=O)N2CCc3ccccc32)s1)c1ccccc1Cl,AC50,[1],"20 µM [rising, partial curve]"
Cc1c2cnn(CC(=O)N3CCN(c4ccc(F)cc4)CC3)c(=O)c2c(C)n1Cc1ccccc1F,AC50,[1],"10 µM [falling, partial curve]"
CC1(C)Cc2ccccc2-c2nnc(SCC(=O)N3CCN(c4ccccc4)CC3)n21,AC50,[1],"12.6 µM [falling, partial curve]"
CN(C)c1ccc(CNC(=O)Cn2ccc3cc(S(=O)(=O)N4CCCCCC4)ccc32)cc1,AC50,[1],"2.51 µM [falling, full curve, poor fit]"
O=C(CCn1cnc2onc(-c3ccc(F)cc3)c2c1=O)N1CCN(c2ccccc2F)CC1,AC50,[1],"25.1 µM [falling, partial curve]"
C=C(C)c1cccc(C(C)(C)NC(=O)N2CCN(c3ccccn3)CC2)c1,AC50,[2],"1.26 µM [falling, partial curve]"
same,AC50,[3],"25.1 µM [falling, partial curve]"
Cc1ccc2c(CC(=O)N(Cc3cccc(Cl)c3)C3CCS(=O)(=O)C3)coc2c1 (stereo not drawn),AC50,[1],"25.1 µM [falling, partial curve]"
Cc1ccc(C(=O)CC2(O)C(=O)N(Cc3ccccc3)c3ccccc32)c(C)c1 (stereo not drawn),AC50,[1],"25.1 µM [falling, partial curve]"
CCOC(=O)C1CCCN(C(=O)c2ccc(NC(=O)c3nsc4ccccc34)cc2)C1 (stereo not drawn),AC50,[1],"1.26 µM [falling, full curve]"
COC(=O)c1ccccc1NC(=O)Cn1c(=O)cc(C)c2c(C)nn(-c3cccc(Cl)c3C)c21,AC50,[1],"7.94 µM [falling, partial curve]"
COc1ccc(Cl)cc1NC(=O)Cn1cnc2sc(C)c(S(=O)(=O)N3CCN(c4ccccc4OC)CC3)c2c1=O,AC50,[1],"12.6 µM [falling, partial curve]"
COc1ccccc1-n1c(=O)oc2ccc(Cl)cc2c1=O,AC50,[1],"6.31 µM [falling, full curve]"
CCCc1nn2c(=O)cc(COC(=O)c3ccco3)nc2s1,AC50,[1],"39.8 µM [falling, single point]"
COc1ccc(CCNC(=O)Cn2c(=O)c3cccn3c3ccccc32)cc1OC,AC50,[1],"15.8 µM [falling, partial curve]"
COc1ccccc1N1CC(O)=C(c2nc3ccccc3s2)C1=N,AC50,[1],"12.6 µM [falling, partial curve]"
CCOC(=O)Cn1c(=O)n(CC2CCCO2)c2nc(-c3ccc(CC)cc3)nc(C(N)=O)c21 (stereo not drawn),AC50,[1],"10 µM [falling, partial curve]"
CC(=O)Nc1c(C)nn(-c2ccccc2)c1N1CCC(C(=O)Nc2cccc(C(F)(F)F)c2)CC1,AC50,[1],"39.8 µM [falling, single point]"
CCCN(CCC)C(=O)C1CCCN(c2ncnc3c2nc2n3CCCCC2)C1 (stereo not drawn),AC50,[1],"25.1 µM [falling, partial curve]"
CCc1nnc2c3ccccc3nc(N3CCN(c4cc(C)ccc4C)CC3)n12,AC50,[1],"15.8 µM [falling, partial curve]"
COc1ccc2[nH]c(=O)c(CN(Cc3cccnc3)C(=O)Nc3ccccc3)cc2c1,AC50,[1],"15.8 µM [falling, partial curve]"
Cc1ccc(S(=O)(=O)c2nnn3c2nc(N2CCC(C(N)=O)CC2)c2cc(Cl)ccc23)cc1C,AC50,[1],"2 µM [rising, partial curve, poor fit]"
CC(CCc1ccco1)NC(=O)Nc1cccc(F)c1 (stereo not drawn),AC50,[1],"31.6 µM [falling, single point]"
Cc1nc2c(c(C)nn2C(C)(C)C)c(C)c1CCC(=O)Nc1ccc(Br)cc1Br,AC50,[1],"10 µM [falling, partial curve]"
CCc1cc2ccccc2nc1SCC(=O)N1CCN(C(=O)c2ccco2)CC1,AC50,[1],"15.8 µM [falling, partial curve]"
Cc1c(C(=O)N(C)C)sc2c1c(=O)n(-c1ccc(Cl)c(Cl)c1)c(=O)n2CC(=O)Nc1ccc(Br)cc1F,AC50,[1],"0.0251 µM [rising, full curve, poor fit]"
COc1ccc(-n2cc(-c3ccc4c(c3)OCO4)n(CC(=O)Nc3cccc(C)c3)c2=O)cc1,AC50,[1],"39.8 µM [falling, single point]"
CCCCC1CCC(CCCC(C)CCC(=O)O)CC1 (stereo not drawn),AC50,[1],"25.1 µM [falling, single point]"
O=C(CC1N=C2c3ccccc3N=C(SCC(=O)Nc3ccc(F)cc3)N2C1=O)NCc1ccc2c(c1)OCO2 (stereo not drawn),AC50,[1],"12.6 µM [falling, partial curve, poor fit]"

# Some of the entries so far, with bars between the fields.
smiles | measurement | setting | value
CC(C)CCNc1ncnc2c1cnn2-c1cccc(Cl)c1 | AC50 | [1] | 39.8 µM [falling, single point]
Cc1ccccc1C(c1c(C)n(C)n(-c2ccccc2)c1=O)c1c(C)n(C)n(-c2ccccc2)c1=O | AC50 | [1] | 39.8 µM [falling, single point]
CCOc1ccc2c(c1)c(=O)c(C(=O)c1ccc(C)cc1)cn2Cc1ccccc1OC | AC50 | [1] | 20 µM [falling, partial curve]
CCOc1ccccc1NC(=O)CN1C(=O)C2(SCC(=O)N2c2ccc(C)cc2)c2ccccc21 (stereo not drawn) | AC50 | [1] | 10 µM [falling, partial curve]
CCc1nnc(NC(=O)CCC(=O)N2CCN(CCc3ccccc3)CC2)s1 | AC50 | [1] | 3.16 µM [falling, full curve]
CC(C)c1ccc(NC(=O)Cn2c(=O)n(Cc3nc(-c4ccccc4)no3)c(=O)c3cc4c(cc32)OCO4)cc1 | AC50 | [1] | 7.94 µM [falling, partial curve]
CCS(=O)(=O)c1ncc(Cl)c(C(=O)N(Cc2ccccc2)c2ccc(OC)cc2)n1 | AC50 | [1] | 2.51 µM [falling, partial curve]
O=C(CN1CCN(S(=O)(=O)c2ccc(F)cc2)CC1)Nc1ccc(Cl)c(C(F)(F)F)c1 | AC50 | [1] | 15.8 µM [falling, partial curve]
CCCOC(=O)c1ccc(NC(=O)CCC(=O)OCC)cc1 | AC50 | [1] | 1.26 µM [falling, full curve]
CC(C)OCCCN1C(=O)c2[nH]nc(-c3ccccc3O)c2C1c1cccc(OCc2ccccc2)c1 (stereo not drawn) | AC50 | [1] | 12.6 µM [falling, partial curve]
O=C1CC(c2ccco2)c2ccc3ccccc3c2N1 (stereo not drawn) | AC50 | [1] | 2 µM [rising, partial curve] [measured here: IkB-luc green channel]
N=C(N)SCCON1C(=O)c2ccccc2C1=O | AC50 | [1] | 3.16 µM [falling, partial curve]
O=C(Nc1nnc(S(=O)(=O)N2CCc3ccccc32)s1)c1ccccc1Cl | AC50 | [1] | 20 µM [rising, partial curve]
Cc1c2cnn(CC(=O)N3CCN(c4ccc(F)cc4)CC3)c(=O)c2c(C)n1Cc1ccccc1F | AC50 | [1] | 10 µM [falling, partial curve]
